Laboratory results from patent US8193221B2, “Insecticidal compounds” (Syngenta Crop Protection LLC, priority 2007, dated 2012).
Some results were stated once for a whole list of compounds, not compound by compound.

Key:
Assay type in all cases: in vivo
[1] = tested on: Diabrotica balteata; experiment: Diabrotica balteata (corn root worm) larval test on artificial diet; details: 200 ppm (18 ppm in well), L2 larvae, larval mortality and growth regulation after 5 days
Protocol: Diabrotica balteata (Corn Root Worm):
(§1) A 24-well microtiter plate (MTP) with artificial diet was treated with test solutions at an application rate of 200 ppm (concentration in well 18 ppm) by pipetting. After drying, the MTP's were infested with L2 larvae (6-10 per well). After an incubation period of 5 days, samples were checked for larval mortality and growth regulation.

[2] = tested on: Heliothis virescens; experiment: Heliothis virescens (tobacco budworm) egg test on artificial diet; details: 200 ppm (18 ppm in well), eggs 0-24 h old on artificial diet, egg/larval mortality and growth regulation after 4 days
Protocol: Heliothis virescens (Tobacco Budworm):
Eggs (0-24 h old) were placed in 24-well microtiter plate on artificial diet and treated with test solutions at an application rate of 200 ppm (concentration in well 18 ppm) by pipetting. After an incubation period of 4 days, samples were checked for egg mortality, larval mortality, and growth regulation.

[3] = tested on: Tetranychus urticae; experiment: Tetranychus urticae (two-spotted spider mite) bean leaf disc spray test; details: 200 ppm sprayed on bean leaf discs, mite populations of mixed ages, egg/larval/adult mortality after 8 days
From the text: Tetranychus urticae (Two-Spotted Spider Mite):
Bean leaf discs on agar in 24-well microtiter plates were sprayed with test solutions at an application rate of 200 ppm. After drying, the leaf discs are infested with mite populations of mixed ages. 8 days later, discs are checked for egg mortality, larval mortality, and adult mortality.

[4] = tested on: Thrips tabaci; experiment: Thrips tabaci (onion thrips) sunflower leaf disc spray test; details: 200 ppm sprayed on sunflower leaf discs, population of mixed ages, mortality after 7 days
Protocol: Thrips tabaci (Onion Trips):
Sunflower leaf discs were placed on agar in a 24-well microtiter plate and sprayed with test solutions at an application rate of 200 ppm. After drying, the leaf discs were infested with an […] population of mixed ages. After an incubation period of 7 days, samples were checked for mortality.

[5] = tested on: Plutella xylostella; experiment: Plutella xylostella (diamond back moth) larval test on artificial diet; details: 200 ppm (18 ppm in well), L2 larvae, larval mortality and growth regulation after 6 days
Protocol: Plutella xylostella (Diamond Back Moth):
as §1, with “24-well” for “A 24-well”, “(7-12” for “(6-10”, “6” for “5”

[6] = tested on: Spodoptera littoralis; experiment: Spodoptera littoralis (Egyptian cotton leafworm) cotton leaf disc spray test; details: 200 ppm sprayed on cotton leaf discs, L1 larvae, mortality, feeding behavior, growth regulation 3 DAT
From the text: Spodoptera littoralis (Egyptian Cotton Leafworm):
Cotton leaf discs were placed on agar in a 24-well microtiter plate and sprayed with test solutions at an application rate of 200 ppm. After drying, the leaf discs were infested with 5 L1 larvae. The samples were checked for mortality, feeding behavior, and growth regulation 3 days after treatment (DAT).

Row | Structure (SMILES) | control of Diabrotica balteata [1] | control of Heliothis virescens [2] | control of Tetranychus urticae [3] | control of Thrips tabaci [4] | control of Plutella xylostella [5] | control of Spodoptera littoralis [6]
1 | C#CCONC(=N)c1ccc(C2=NOC(c3cc(Cl)cc(Cl)c3)(C(F)(F)F)C2)cc1C (stereo not shown) [Compound A2, 4-[5-(3,5-dichloro-phenyl)-5-trifluoromethyl-4,5-dihydro-isoxazol-3-yl]-2-methyl-N-prop-2-ynyloxy-benzamidine] | at least 80% | at least 80% | at least 80% | at least 80% | at least 80% | –
2 | Cc1cc(C2=NOC(c3cc(Cl)cc(Cl)c3)(C(F)(F)F)C2)ccc1C(=N)NOCCCC#N (stereo not shown) [Compound A7] | at least 80% | – | – | – | at least 80% | at least 80%
3 | CC(=O)C(C)ONC(=N)c1ccc(C2=NOC(c3cc(Cl)cc(Cl)c3)(C(F)(F)F)C2)cc1C (stereo not shown) [Compound A8] | at least 80% | at least 80% | at least 80% | at least 80% | at least 80% | at least 80%
4 | C=C(C)CONC(=N)c1ccc(C2=NOC(c3cc(Cl)cc(Cl)c3)(C(F)(F)F)C2)cc1C (stereo not shown) [Compound A9] | at least 80% | at least 80% | – | – | at least 80% | at least 80%
5 | Cc1cc(C2=NOC(c3cc(Cl)cc(Cl)c3)(C(F)(F)F)C2)ccc1C(=N)NOCc1cc(Cl)cc(Cl)c1 (stereo not shown) [Compound A10] | – | – | – | – | – | at least 80%
6 | Cc1ccc(CONC(=N)c2ccc(C3=NOC(c4cc(Cl)cc(Cl)c4)(C(F)(F)F)C3)cc2C)c(C)c1 (stereo not shown) [Compound A11] | at least 80% | at least 80% | – | – | at least 80% | at least 80%
7 | Cc1cc(C2=NOC(c3cc(Cl)cc(Cl)c3)(C(F)(F)F)C2)ccc1C(=N)NOCc1c(F)cccc1F (stereo not shown) [Compound A12] | – | – | – | – | at least 80% | –
8 | COc1cccc(CONC(=N)c2ccc(C3=NOC(c4cc(Cl)cc(Cl)c4)(C(F)(F)F)C3)cc2C)c1 (stereo not shown) [Compound A15] | at least 80% | – | – | – | at least 80% | –
9 | Cc1cc(C2=NOC(c3cc(Cl)cc(Cl)c3)(C(F)(F)F)C2)ccc1C(=N)NOCCC1(C)OCC(C)(C)CO1 (stereo not shown) [Compound A16] | at least 80% | at least 80% | – | – | at least 80% | at least 80%
10 | Cc1cc(C2=NOC(c3cc(Cl)cc(Cl)c3)(C(F)(F)F)C2)ccc1C(=N)NOCc1ccc2c(c1)OCCCO2 (stereo not shown) [Compound A17] | at least 80% | – | – | – | at least 80% | –
11 | Cc1cc(C2=NOC(c3cc(Cl)cc(Cl)c3)(C(F)(F)F)C2)ccc1C(=N)NOCCCCCCCl (stereo not shown) [Compound A18] | – | – | – | – | at least 80% | –
12 | Cc1cc(C2=NOC(c3cc(Cl)cc(Cl)c3)(C(F)(F)F)C2)ccc1C(=N)NOCCCc1ccccc1 (stereo not shown) [Compound A20] | – | – | – | – | at least 80% | –
13 | Cc1cc(C2=NOC(c3cc(Cl)cc(Cl)c3)(C(F)(F)F)C2)ccc1C(=N)NOCCOc1ccccc1 (stereo not shown) [Compound A21] | at least 80% | at least 80% | – | – | at least 80% | at least 80%
14 | Cc1cc(C2=NOC(c3cc(Cl)cc(Cl)c3)(C(F)(F)F)C2)ccc1C(=N)NOCCOCc1ccccc1 (stereo not shown) [Compound A22] | – | – | – | – | at least 80% | –
15 | Cc1cc(C2=NOC(c3cc(Cl)cc(Cl)c3)(C(F)(F)F)C2)ccc1C(=N)NOCC1COc2ccccc2O1 (stereo not shown) [Compound A23] | at least 80% | – | – | – | at least 80% | at least 80%
16 | Cc1cc(C2=NOC(c3cc(Cl)cc(Cl)c3)(C(F)(F)F)C2)ccc1C(=N)NOCc1cnc(Cl)c(Cl)c1 (stereo not shown) [Compound A29] | – | – | – | – | at least 80% | at least 80%
17 | Cc1cc(C2=NOC(c3cc(Cl)cc(Cl)c3)(C(F)(F)F)C2)ccc1C(=N)NOCc1c(C)noc1C (stereo not shown) [Compound A30] | at least 80% | – | – | – | – | –
18 | Cc1cc(C2=NOC(c3cc(Cl)cc(Cl)c3)(C(F)(F)F)C2)ccc1C(=N)NOCc1ccc(Cl)nc1 (stereo not shown) [Compound A31] | – | at least 80% | – | – | at least 80% | at least 80%
19 | Cc1cc(CONC(=N)c2ccc(C3=NOC(c4cc(Cl)cc(Cl)c4)(C(F)(F)F)C3)cc2C)n(C)n1 (stereo not shown) [Compound A34] | at least 80% | at least 80% | – | – | at least 80% | at least 80%
